Measured values reported in PMC8112863.
No constants are given. Whether binding was seen depends on the method and setting. In cells and extracts the contact can be indirect. Some binding calls cover weakened binding; strength is not graded here.

The chains behind the UniProt entries cited, without tags or fusion partners.
UniProt Q9NRX1: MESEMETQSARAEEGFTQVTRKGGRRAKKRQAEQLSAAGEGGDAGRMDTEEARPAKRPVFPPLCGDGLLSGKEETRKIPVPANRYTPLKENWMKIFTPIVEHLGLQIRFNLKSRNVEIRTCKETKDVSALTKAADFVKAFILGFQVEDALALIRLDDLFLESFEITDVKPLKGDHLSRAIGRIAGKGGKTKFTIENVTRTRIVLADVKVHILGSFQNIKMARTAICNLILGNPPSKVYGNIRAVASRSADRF

T1: RIO1(wt)-StHA, wild-type RIO1 (human) (UniProt Q9BRS2)
T1 sequence: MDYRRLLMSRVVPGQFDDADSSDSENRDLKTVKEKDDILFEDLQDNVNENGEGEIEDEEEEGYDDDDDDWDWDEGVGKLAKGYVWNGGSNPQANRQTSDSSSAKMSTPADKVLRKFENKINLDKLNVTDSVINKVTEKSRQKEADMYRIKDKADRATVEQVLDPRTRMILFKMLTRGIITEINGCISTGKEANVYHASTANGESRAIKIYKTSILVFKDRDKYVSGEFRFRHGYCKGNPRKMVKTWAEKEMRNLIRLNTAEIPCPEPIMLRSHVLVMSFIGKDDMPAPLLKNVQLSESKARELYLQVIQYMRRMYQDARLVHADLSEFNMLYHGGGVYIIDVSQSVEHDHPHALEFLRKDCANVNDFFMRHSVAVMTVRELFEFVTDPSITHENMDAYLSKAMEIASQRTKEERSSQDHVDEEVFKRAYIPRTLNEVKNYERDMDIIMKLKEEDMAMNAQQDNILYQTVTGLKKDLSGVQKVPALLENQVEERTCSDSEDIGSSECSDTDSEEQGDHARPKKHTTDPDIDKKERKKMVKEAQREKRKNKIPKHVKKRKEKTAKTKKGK

T2: RIO1(kd)-StHA, catalytically inactive RIO1 mutated on aspartic acid 324 (D324A) (human) (UniProt Q9BRS2)
T2 sequence: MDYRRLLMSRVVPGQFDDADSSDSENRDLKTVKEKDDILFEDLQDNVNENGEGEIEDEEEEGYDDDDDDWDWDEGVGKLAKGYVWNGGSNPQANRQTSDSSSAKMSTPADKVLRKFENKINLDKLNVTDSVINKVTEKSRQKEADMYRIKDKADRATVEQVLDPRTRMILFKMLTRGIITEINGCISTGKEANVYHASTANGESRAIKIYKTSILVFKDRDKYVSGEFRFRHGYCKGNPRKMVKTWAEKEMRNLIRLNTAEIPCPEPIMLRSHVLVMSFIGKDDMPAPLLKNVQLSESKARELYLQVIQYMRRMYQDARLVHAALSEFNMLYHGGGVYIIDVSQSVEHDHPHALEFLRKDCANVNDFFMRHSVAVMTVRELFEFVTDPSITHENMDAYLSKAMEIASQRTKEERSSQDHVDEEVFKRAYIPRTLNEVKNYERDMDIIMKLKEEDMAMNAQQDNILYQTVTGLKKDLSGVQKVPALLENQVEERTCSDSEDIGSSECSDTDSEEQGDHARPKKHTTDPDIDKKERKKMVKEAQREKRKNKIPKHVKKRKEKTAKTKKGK

T3: HASt-LTV1 (UniProt Q96GA3)
T3 sequence: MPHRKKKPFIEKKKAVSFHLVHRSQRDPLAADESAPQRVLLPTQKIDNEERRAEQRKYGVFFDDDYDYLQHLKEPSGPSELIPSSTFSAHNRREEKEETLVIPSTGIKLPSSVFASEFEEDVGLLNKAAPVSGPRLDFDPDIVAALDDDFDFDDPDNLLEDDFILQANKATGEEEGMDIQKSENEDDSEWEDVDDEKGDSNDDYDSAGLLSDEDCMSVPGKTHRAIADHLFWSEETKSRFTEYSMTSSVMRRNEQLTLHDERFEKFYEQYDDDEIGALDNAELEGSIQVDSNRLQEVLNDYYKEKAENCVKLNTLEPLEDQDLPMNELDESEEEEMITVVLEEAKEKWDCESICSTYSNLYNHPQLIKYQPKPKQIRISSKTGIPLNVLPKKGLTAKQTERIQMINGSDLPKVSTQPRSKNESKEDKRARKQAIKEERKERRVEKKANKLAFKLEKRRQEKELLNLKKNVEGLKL

B1: NOB1 (enzyme, UniProt Q9ULX3 1-412)
chain: MAPVEHVVADAGAFLRHAALQDIGKNIYTIREVVTEIRDKATRRRLAVLPYELRFKEPLPEYVRLVTEFSKKTGDYPSLSATDIQVLALTYQLEAEFVGVSHLKQEPQKVKVSSSIQHPETPLHISGFHLPYKPKPPQETEKGHSACEPENLEFSSFMFWRNPLPNIDHELQELLIDRGEDVPSEEEEEEENGFEDRKDDSDDDGGGWITPSNIKQIQQELEQCDVPEDVRVGCLTTDFAMQNVLLQMGLHVLAVNGMLIREARSYILRCHGCFKTTSDMSRVFCSHCGNKTLKKVSVTVSDDGTLHMHFSRNPKVLNPRGLRYSLPTPKGGKYAINPHLTEDQRFPQLRLSQKARQKTNVFAPDYIAGVSPFVENDISSRSATLQVRDSTLGAGRRRLNPNASRKKFVKKR
B2: EIF1AD (protein, UniProt Q8N9N8 1-165)
chain: MSQATKRKHVVKEVLGEHIVPSDQQQIVRVLRTPGNNLHEVETAQGQRFLVSMPSKYRKNIWIKRGDFLIVDPIEEGEKVKAEISFVLCKDHVRSLQKEGFWPEAFSEVAEKHNNRNRQTQPELPAEPQLSGEESSSEDDSDLFVNTNRRQYHESEEESEEEEAA

Assays:
[1] = biological target: T1, RIO1(wt)-StHA, wild-type RIO1 (human); test: co-IP; RIO1(wt)-StHA bait from control cells (scramble siRNA), anti-HA affinity gel, TAP buffer washes, SDS elution, western blot
[2] = biological target: T2, RIO1(kd)-StHA, catalytically inactive RIO1 mutated on aspartic acid 324 (D324A) (human); test: co-IP; HASt- or StHA-tagged bait captured from HEK293 lysate on anti-HA affinity gel, washed with TAP buffer, eluted with SDS sample buffer, western blot; cells treated with scramble or RPS26 siRNA for 48 hr
HASt-LTV1 = biological target: T3, HASt-LTV1; test: as above
[3] = biological target: T1, RIO1(wt)-StHA, wild-type RIO1 (human); test: as above

Molecule | binding [1] | binding [2] | binding (HASt-LTV1) | binding [3]
DIM2 (from UniProt Q9NRX1 1-252) | binds weakly | binds | binds | binds
B1 | binds weakly | binds |  | binds
B2 |  | binds |  | 
